Experimental data published in PMC11904942.
Results are given in words; binding and its absence hold for the method and conditions named. Binding seen in cells or lysates may run through a third protein. Some binding calls cover weakened binding; strength is not graded here.

The chains behind the UniProt entries cited, without tags or fusion partners. Where a name states a change or a piece, a line headed by the entry shows the natural chain unless it says otherwise. Residues count along the entry.
UniProt P42568: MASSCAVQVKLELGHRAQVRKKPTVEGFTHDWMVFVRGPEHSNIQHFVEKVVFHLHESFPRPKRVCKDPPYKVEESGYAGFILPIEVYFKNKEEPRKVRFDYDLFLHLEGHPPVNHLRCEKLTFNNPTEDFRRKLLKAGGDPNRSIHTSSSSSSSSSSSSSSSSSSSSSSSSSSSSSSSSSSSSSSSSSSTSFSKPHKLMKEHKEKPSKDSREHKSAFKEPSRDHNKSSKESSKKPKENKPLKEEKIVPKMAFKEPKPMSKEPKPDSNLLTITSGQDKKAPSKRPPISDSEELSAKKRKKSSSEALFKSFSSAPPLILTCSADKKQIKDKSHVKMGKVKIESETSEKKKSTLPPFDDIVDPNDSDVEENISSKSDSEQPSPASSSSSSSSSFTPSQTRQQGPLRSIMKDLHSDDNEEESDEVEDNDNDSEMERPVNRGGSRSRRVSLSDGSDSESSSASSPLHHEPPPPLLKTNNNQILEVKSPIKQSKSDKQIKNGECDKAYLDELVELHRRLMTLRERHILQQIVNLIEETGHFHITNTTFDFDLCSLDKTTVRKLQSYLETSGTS
MLLT3 N-terminus (Flag 1-279): residues 1-279 of P42568
UniProt P09429: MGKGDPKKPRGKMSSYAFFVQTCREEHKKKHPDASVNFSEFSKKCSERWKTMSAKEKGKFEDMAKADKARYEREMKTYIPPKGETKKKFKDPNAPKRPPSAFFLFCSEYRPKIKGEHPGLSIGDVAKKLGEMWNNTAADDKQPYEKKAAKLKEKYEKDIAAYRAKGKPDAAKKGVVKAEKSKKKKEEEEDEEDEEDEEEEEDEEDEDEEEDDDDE
UniProt P67809: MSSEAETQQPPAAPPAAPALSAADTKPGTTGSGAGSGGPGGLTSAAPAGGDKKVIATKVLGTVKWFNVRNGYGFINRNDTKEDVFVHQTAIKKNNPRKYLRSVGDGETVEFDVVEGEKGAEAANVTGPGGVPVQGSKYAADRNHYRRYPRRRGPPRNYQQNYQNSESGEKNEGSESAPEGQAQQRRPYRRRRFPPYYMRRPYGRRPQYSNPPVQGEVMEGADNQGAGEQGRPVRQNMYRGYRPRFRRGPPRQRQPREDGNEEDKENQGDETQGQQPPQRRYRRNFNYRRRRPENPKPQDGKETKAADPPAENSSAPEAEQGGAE

How the values were obtained:
[1] = target: MLLT3 as partner in the co-IP assays (construct and tag not stated) (human) (UniProt P42568); experiment: co-IP; exogenous Co-IP with Flag-tagged truncations of MLLT3, HMGB1 and YBX1 (Figures 4F, 6A); cells not given
[2] = target: MLLT3 N-terminus (Flag 1-279) (human) (UniProt P42568); experiment: as above
[3] = target: Flag-MLLT3 (Myeloid/Lymphoid Or Mixed-Lineage Leukemia; Translocated To, 3), full length (human) (UniProt P42568); experiment: as above
[4] = target: MLLT3 as partner in the co-IP assays (construct and tag not stated) (human) (UniProt P42568); experiment: co-IP; whole proteins (Figures 4D, S6E); Thermo Scientific co-IP kit 88805; pre-cleared cell lysate incubated with A/G agarose beads coupled to HMGB1 and MLLT3 antibodies; Western blot

| Substance | binding [1] | binding [2] | binding [3] | binding [4] |
| --- | --- | --- | --- | --- |
| HMGB1 C-terminus (Flag 111-215) (from UniProt P09429 111-215) (domain or fragment) | binds |  |  |  |
| HMGB1 as partner in the co-IP assays (construct and tag not stated) (from UniProt P09429 1-215) |  | binds | binds | binds |
| YBX1 N-terminus (Flag 1-160) (from UniProt P67809 1-160) (domain or fragment) | binds |  |  |  |
| YBX1 as partner in the co-IP assays (construct and tag not stated) (from UniProt P67809 1-324) |  | binds |  | binds |
